According to PMC12263876, “DDX39B K63-linked ubiquitination mediated by TRIM28 promotes NSCLC metastasis by enhancing ECAD lysosomal degradation” (Signal Transduction and Targeted Therapy, 2025):
These are yes or no findings as the source states them, for the method shown. Binding can be weak; no strength is given. For some of these results: In cells and extracts the contact can be indirect. Blank lines part the entries; values can stand above or below the molecule they belong to.

Chains of the proteins cited; added tags and fusions are not shown. Lines headed by an entry give the natural chain unless they say otherwise; changes in a name come on top.
UniProt Q13838: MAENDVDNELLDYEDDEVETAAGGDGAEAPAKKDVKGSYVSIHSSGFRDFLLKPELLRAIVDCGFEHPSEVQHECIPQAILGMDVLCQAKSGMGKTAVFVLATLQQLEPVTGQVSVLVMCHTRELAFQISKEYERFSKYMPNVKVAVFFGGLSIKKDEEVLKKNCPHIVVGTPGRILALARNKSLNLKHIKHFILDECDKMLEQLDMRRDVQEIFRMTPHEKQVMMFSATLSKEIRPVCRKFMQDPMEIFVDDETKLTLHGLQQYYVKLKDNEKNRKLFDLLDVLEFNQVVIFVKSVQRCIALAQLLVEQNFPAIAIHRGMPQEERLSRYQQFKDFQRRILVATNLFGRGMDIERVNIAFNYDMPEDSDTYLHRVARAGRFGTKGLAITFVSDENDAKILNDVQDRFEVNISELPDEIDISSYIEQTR
UniProt P12830: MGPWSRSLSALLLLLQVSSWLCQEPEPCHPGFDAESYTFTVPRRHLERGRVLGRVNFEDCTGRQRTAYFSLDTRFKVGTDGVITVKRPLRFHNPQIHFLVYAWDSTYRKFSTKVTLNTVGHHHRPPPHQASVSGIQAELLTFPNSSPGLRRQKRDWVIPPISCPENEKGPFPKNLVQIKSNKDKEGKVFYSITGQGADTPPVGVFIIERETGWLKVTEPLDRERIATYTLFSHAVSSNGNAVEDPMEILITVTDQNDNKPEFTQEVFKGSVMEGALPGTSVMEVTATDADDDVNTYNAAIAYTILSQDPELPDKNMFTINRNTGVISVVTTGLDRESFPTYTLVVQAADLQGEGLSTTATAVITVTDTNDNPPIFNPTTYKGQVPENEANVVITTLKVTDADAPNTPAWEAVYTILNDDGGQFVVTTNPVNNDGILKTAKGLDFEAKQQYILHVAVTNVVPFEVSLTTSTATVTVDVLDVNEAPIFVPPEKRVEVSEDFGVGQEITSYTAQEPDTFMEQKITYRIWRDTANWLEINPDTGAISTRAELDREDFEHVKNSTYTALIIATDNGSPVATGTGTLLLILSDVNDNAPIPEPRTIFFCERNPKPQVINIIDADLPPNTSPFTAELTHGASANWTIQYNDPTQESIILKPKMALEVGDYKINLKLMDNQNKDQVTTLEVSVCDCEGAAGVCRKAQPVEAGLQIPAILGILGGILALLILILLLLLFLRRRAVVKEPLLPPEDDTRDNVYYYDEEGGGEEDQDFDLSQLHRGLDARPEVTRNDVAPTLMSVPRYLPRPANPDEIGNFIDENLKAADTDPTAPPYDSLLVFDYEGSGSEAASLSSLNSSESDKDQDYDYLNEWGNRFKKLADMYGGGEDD
UniProt Q13263: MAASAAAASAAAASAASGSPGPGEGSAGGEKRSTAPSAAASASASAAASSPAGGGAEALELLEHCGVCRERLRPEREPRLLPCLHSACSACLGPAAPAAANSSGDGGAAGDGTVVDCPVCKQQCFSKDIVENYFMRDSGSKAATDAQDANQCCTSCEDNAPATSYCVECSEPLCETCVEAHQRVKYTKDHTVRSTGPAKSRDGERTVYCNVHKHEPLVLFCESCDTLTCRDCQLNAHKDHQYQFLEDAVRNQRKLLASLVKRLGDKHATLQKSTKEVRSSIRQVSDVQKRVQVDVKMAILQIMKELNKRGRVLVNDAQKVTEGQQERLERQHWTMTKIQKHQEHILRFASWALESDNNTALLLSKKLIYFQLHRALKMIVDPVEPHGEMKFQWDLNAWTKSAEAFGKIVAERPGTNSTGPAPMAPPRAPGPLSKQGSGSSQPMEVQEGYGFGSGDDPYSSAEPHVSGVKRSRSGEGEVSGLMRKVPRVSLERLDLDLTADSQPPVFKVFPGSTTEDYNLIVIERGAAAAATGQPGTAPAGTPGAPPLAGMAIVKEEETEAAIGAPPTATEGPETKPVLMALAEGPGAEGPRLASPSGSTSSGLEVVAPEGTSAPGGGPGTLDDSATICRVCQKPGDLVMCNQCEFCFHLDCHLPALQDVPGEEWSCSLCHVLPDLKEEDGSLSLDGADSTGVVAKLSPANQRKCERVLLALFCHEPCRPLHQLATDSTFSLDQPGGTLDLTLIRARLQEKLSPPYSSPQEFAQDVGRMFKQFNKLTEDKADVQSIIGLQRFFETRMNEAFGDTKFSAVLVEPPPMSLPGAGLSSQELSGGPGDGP

Tests used:
[1] = molecular target: Flag-DDX39B (DExD-box helicase 39B) (UniProt Q13838); experiment: co-IP; exogenous co-IP in NSCLC cell lines (A549, H1299); anti-Flag magnetic beads overnight at 4 °C, 5 washes with TBS, Western blot
[2] = molecular target: GST-ECD (GST-tagged ECAD cytoplasmic domain) (UniProt P12830); experiment: pull-down; GST pull-down of purified recombinant proteins; GST agarose, incubation at 4 °C overnight, 5 rinses with TBS, elution with 1% SDS, immunoblot; both purified
GST-TRIM28 = GST-TRIM28 (UniProt Q13263); experiment: as above
GST-DDX39B = GST-DDX39B (UniProt Q13838); experiment: as above
VN173-DDX39B = VN173-DDX39B (UniProt Q13838); experiment: split reporter; BiFC in living NSCLC cells co-transfected with VN173 and VC155 fusion plasmids; reconstituted fluorophore signal
[3] = molecular target: Flag-DDX39B (in 293T cells) (UniProt Q13838); experiment: co-IP; tandem affinity purification from lysates of 293T cells co-transfected with Flag-DDX39B and HA-ECAD, using anti-Flag and anti-HA magnetic beads
HA-ECAD (in 293T cells) = HA-ECAD (in 293T cells) (UniProt P12830); experiment: as above
[4] = molecular target: E-cadherin (ECAD), endogenous (human (endogenous in A549 and H1299)); experiment: co-IP; co-IP from NSCLC cell lysates (A549, H1299, A549-BM) with the indicated antibodies or normal IgG overnight at 4 °C, 5 washes with TBS, Western blot; also after EGF (30 ng/ml) or TGF-β (10 ng/ml) for 72 h, and in cells overexpressing DDX39B WT, P322A or 3KR

Molecule: VC155-TRIM28 (from UniProt Q13263 1-835)
- binding (VN173-DDX39B): binds

Molecule: VC155-ECAD (from UniProt P12830)
- binding (VN173-DDX39B): binds

B1: Hakai (E3 ubiquitin ligase) (protein, UniProt Q75N03 1-491)
chain: MDHTDNELQGTNSSGSLGGLDVRRRIPIKLISKQANKAKPAPRTQRTINRMPAKAPPGDEEGFDYNEEERYDCKGGELFANQRRFPGHLFWDFQINILGEKDDTPVHFCDKCGLPIKIYGRMIPCKHVFCYDCAILHEKKGDKMCPGCSDPVQRIEQCTRGSLFMCSIVQGCKRTYLSQRDLQAHINHRHMRAGKPVTRASLENVHPPIAPPPTEIPERFIMPPDKHHMSHIPPKQHIMMPPPPLQHVPHEHYNQPHEDIRAPPAELSMAPPPPRSVSQETFRISTRKHSNLITVPIQDDSNSGAREPPPPAPAPAHHHPEYQGQPVVSHPHHIMPPQQHYAPPPPPPPPISHPMPHPPQAAGTPHLVYSQAPPPPMTSAPPPITPPPGHIIAQMPPYMNHPPPGPPPPQHGGPPVTAPPPHHYNPNSLPQFTEDQGTLSPPFTQPGGMSPGIWPAPRGPPPPPRLQGPPSQTPLPGPHHPDQTRYRPYYQ
- binding [3]: binds
- binding (HA-ECAD (in 293T cells)): binds
- binding [4]: binds

Results, then the molecule that gave them:

- binding [1]: binds
Molecule: TRIM28 (tripartite motif-containing 28), endogenous (from UniProt Q13263 1-835)

- binding [2]: binds
- binding (GST-TRIM28): binds
Molecule: His-DDX39B (wild type) (from UniProt Q13838)

- binding (GST-DDX39B): binds
Molecule: His-TRIM28 (from UniProt Q13263 1-835)

- binding [3]: binds
Molecule: HA-ECAD (in 293T cells) (from UniProt P12830)
